Paper PMC8484013

By UniProt entry, the sequences of proteins in these tests, tags left out.
UniProt Q8WVD5: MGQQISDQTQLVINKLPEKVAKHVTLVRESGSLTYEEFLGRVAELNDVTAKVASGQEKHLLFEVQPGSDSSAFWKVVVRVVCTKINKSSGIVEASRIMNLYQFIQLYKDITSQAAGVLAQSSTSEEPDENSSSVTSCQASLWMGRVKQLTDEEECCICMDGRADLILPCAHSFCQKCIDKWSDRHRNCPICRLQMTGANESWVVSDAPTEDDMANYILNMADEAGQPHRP
UniProt O75608: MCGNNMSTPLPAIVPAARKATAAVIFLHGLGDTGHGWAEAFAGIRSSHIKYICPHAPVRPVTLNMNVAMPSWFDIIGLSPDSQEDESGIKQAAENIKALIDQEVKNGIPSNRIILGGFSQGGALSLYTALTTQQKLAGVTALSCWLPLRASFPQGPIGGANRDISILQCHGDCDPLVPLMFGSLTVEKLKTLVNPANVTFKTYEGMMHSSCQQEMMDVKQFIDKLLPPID

Molecular target: RNF141 (RING finger protein 141) in colorectal cancer cells (human (endogenous in HCT116 and other CRC cell lines)) (UniProt Q8WVD5)
Experiment: affinity purification with mass spectrometry; IP of RNF141 combined with LC-MS/MS from HCT116 cells transfected with LV-NC or LV-RNF141

- binding: binds
Substance: LYPLA1 (Lysophospholipase1), also known as APT1 (acyl-protein thioesterase 1) (from UniProt O75608 1-230) (enzyme)

These are yes or no findings as the source states them, for the method shown. Binding seen in cells or lysates may run through a third protein. A yes stands for co-enrichment or nearness to the bait. Other partners may have been found.
